# Reference: paper PMC10411462
# Amino acid sequences for entries named in this document (tags omitted).
# UniProt P18615: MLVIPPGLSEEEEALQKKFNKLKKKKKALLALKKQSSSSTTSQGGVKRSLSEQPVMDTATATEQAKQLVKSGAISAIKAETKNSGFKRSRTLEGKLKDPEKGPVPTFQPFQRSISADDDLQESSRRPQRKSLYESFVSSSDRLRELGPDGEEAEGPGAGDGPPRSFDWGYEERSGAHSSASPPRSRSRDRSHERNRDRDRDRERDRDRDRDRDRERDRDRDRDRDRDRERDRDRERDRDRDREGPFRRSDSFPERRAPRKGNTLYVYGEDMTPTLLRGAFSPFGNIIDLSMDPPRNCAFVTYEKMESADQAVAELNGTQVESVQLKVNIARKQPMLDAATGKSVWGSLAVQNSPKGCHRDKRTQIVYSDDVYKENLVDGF
# UniProt Q9NTX7: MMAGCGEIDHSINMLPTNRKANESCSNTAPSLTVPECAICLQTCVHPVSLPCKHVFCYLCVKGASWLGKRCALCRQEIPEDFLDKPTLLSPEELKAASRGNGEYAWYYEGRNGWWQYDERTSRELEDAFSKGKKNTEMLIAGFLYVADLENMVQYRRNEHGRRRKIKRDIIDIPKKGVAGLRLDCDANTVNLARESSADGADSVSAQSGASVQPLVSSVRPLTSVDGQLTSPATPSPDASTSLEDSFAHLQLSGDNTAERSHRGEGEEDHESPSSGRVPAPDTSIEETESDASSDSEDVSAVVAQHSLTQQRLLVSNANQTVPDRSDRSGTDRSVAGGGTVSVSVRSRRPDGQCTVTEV
# UniProt P09874: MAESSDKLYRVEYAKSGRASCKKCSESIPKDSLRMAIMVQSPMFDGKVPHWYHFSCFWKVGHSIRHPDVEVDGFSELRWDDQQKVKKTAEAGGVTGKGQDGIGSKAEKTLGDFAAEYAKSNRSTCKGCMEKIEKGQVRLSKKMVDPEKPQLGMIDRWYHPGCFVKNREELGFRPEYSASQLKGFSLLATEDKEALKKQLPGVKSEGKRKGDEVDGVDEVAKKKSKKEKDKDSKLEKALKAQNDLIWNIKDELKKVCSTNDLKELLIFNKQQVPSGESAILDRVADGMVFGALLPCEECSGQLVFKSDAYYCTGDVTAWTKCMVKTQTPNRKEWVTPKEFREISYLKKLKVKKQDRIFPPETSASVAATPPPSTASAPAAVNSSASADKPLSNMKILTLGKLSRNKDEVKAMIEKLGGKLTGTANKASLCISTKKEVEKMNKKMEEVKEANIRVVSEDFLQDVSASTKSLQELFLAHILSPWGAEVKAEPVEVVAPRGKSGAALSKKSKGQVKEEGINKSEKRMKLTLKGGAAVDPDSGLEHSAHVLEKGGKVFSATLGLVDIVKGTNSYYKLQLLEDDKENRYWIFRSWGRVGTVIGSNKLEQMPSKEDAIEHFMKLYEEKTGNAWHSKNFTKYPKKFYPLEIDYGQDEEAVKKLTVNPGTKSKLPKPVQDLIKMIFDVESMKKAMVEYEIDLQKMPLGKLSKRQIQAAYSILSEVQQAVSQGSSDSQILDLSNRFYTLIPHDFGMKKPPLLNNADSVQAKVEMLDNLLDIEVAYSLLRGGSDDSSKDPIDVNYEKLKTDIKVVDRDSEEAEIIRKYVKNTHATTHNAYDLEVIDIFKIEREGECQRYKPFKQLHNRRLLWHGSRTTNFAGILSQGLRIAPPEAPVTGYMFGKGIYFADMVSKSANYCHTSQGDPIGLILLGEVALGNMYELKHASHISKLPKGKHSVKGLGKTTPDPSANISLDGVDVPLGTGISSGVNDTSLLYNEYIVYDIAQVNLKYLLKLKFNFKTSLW
# UniProt Q04206: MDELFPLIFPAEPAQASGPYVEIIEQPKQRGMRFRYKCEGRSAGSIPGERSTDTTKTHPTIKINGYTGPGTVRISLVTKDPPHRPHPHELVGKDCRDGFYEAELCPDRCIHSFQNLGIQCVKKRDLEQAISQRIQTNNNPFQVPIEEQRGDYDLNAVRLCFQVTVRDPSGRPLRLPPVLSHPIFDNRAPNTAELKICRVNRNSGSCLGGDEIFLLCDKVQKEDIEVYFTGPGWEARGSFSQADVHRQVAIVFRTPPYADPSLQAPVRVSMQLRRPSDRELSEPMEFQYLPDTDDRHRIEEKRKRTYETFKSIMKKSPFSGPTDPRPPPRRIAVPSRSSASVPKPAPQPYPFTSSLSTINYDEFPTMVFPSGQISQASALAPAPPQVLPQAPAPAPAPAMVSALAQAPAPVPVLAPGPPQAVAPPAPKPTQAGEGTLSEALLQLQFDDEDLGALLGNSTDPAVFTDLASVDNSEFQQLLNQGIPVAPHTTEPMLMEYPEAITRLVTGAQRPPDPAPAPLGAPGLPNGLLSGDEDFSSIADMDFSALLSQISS
# No constants are given. Whether binding was seen depends on the method and setting. Binding seen in cells or lysates may run through a third protein. Some entries that bind do so weakly or less than the wild type.
# Legend:
# [1] = target: NELF-E (human (endogenous in Cal-62)) (UniProt P18615); assay: co-IP; endogenous proteins in Cal-62 lysates (RIPA buffer); 4 ug primary antibody overnight at 4 C, protein G Dynabeads 2 h, immunoblot; anti-IgG as control; some panels from cells treated with DMSO or niraparib, or with scrambled or PARP1 siRNA for 48 h
# [2] = target: RNF146-flag (UniProt Q9NTX7); assay: co-IP; Cal-62 cells expressing RNF146-flag, lysed with RIPA buffer; immunoprecipitation with flag antibody, immunoblot
Substance,binding [1],binding [2]
PARP1 (from UniProt P09874 1-1014),binds,
p65 (from UniProt Q04206 1-551),,binds
